Assay results: the supplement of paper PMC10849652
This is one part of the list.

Amino acid sequences for entries named in this document (tags omitted). A change or cut given only in a name is not applied to a line headed by its entry.
UniProt Q00535, whole entry, looked up: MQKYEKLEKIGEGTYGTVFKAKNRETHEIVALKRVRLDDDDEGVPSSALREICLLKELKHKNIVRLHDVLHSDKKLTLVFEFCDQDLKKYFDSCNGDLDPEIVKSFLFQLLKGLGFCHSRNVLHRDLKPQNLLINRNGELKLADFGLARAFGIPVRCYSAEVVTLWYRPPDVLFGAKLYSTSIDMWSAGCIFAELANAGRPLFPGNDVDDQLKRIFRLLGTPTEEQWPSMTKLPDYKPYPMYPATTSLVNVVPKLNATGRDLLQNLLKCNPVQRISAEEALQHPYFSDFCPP
UniProt O95319: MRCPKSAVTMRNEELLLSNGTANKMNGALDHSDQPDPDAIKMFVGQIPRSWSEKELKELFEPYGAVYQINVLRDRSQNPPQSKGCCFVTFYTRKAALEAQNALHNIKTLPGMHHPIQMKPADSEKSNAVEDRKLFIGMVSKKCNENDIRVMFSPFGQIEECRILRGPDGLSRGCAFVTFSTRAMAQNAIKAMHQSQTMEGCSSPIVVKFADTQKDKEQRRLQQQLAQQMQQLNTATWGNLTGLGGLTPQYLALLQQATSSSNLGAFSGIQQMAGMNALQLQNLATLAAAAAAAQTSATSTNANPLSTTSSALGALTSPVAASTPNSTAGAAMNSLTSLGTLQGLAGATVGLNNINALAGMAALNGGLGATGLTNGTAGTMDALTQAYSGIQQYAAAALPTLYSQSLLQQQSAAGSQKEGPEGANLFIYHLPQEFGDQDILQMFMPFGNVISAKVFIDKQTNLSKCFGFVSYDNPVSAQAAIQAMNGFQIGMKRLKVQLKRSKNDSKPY
UniProt Q9Y6A4: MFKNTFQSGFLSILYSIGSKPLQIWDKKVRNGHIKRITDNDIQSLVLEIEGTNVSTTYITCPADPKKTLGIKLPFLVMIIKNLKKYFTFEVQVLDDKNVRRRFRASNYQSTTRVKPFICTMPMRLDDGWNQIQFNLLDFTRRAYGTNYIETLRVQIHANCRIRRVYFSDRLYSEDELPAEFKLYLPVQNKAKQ
UniProt Q9BYV8: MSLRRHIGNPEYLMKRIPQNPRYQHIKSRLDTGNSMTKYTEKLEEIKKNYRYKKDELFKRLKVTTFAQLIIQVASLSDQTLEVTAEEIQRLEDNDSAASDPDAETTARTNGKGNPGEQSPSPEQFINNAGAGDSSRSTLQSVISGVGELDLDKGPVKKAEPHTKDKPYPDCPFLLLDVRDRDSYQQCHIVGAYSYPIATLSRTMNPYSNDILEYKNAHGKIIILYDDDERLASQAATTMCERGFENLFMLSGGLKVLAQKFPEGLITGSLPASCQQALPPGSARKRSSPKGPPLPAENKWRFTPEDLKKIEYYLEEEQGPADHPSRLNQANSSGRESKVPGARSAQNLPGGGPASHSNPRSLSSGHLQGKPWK
UniProt O75419: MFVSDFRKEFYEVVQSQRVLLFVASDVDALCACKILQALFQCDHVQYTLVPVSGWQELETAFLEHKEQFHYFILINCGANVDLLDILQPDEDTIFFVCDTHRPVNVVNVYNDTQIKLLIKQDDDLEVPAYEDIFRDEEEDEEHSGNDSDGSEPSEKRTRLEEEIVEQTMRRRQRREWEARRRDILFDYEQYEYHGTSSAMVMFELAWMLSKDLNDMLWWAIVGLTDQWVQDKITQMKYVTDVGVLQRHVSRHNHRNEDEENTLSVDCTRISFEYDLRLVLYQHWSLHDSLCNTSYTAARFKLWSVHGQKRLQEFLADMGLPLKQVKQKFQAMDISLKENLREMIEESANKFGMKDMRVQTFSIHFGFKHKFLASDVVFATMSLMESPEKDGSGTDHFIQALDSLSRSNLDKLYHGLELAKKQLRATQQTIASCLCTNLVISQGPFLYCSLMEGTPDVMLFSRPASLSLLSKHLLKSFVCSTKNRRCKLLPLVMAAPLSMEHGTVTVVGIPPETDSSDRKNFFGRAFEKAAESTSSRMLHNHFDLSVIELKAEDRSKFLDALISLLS
UniProt O00748: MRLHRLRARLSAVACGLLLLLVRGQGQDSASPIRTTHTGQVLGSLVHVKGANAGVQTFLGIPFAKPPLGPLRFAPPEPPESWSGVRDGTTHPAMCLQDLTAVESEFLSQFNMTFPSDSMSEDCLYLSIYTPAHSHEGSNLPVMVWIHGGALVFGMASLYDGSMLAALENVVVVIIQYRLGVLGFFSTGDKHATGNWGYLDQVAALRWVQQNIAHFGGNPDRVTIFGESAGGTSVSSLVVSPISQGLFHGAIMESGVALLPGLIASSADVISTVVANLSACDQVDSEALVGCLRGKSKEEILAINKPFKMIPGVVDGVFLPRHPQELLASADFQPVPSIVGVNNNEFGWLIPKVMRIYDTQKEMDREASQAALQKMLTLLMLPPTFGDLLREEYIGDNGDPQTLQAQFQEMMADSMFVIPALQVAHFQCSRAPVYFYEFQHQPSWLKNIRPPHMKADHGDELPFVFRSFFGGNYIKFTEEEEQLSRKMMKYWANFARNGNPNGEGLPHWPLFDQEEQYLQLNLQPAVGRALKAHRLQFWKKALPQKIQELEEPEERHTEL
UniProt P46527, whole entry, looked up: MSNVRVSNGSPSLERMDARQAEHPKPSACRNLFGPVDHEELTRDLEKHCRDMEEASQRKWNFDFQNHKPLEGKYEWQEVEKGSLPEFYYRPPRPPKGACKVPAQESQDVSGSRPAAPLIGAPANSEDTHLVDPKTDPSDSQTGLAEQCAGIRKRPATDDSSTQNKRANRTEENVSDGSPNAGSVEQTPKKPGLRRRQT
UniProt Q7L2Z9: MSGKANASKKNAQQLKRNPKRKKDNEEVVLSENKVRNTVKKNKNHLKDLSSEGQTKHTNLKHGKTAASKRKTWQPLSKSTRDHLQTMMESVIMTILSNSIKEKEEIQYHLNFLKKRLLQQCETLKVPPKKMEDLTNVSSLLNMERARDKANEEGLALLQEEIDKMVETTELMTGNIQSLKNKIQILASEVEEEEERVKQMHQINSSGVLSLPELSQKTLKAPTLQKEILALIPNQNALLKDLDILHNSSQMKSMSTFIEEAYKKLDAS
UniProt P30260, whole entry, looked up: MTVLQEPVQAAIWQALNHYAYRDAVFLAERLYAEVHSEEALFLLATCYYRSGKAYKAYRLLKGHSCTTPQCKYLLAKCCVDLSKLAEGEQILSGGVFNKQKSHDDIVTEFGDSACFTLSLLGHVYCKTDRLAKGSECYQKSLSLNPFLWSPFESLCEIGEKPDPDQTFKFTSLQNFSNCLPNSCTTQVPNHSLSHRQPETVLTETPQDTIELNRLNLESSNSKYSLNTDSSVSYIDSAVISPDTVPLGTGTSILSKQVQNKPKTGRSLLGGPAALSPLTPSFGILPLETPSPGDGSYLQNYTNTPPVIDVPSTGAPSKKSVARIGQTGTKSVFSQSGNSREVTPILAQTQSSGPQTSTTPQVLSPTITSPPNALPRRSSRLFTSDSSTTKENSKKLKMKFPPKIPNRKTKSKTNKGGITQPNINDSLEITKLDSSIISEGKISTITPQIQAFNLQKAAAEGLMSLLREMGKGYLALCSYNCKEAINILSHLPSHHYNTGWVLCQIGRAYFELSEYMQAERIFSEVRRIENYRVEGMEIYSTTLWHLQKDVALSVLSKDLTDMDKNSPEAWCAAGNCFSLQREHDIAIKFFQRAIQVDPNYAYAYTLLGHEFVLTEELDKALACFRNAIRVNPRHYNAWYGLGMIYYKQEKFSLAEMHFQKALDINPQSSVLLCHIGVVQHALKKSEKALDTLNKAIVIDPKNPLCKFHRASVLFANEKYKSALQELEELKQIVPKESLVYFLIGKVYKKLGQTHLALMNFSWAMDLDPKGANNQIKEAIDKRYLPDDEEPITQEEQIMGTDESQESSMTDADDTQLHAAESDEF

What was measured:
Assay in all cases: log2 fold change, soluble protein after heating vs DMSO (PISA); higher = thermal stabilisation; K562 lysate, 10 uM; active = over 0.2 and 3.5 SD of the protein, either way, in both replicates (recomputed)
[1] = compound: C1=CC=C(C=C1)[C@H](COC2=CC3=C(C=C2)NC(=O)N3)NC(=O)C4=CC=CN(C4=O)CC5=CC(=C(C=C5)F)F
Method in brief: (§1)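 Following dounce homogenisation of K562 pellets in PBS pH 7.4 with 1 mM MgCl2, crude extract at 1 mg/mL protein was incubated for 30 min with 10 μM compound. Aliquots were then heated for 3 min over 48°C-58°C and pooled, NP-40 was added to 0.5% at 4°C, and soluble protein was recovered as the supernatant at 21,000xg for 90 min. Channel-sum-equalised TMTpro 16plex LC-MS/MS quantified this protein. Each value, from duplicates, is a log-two fold change in thermal stability relative to solvent controls.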

[2] = compound: CC1=C(SC2=C1C(=N[C@H](C3=NN=C(N32)C)CC(=O)N)C4=CC=C(C=C4)Cl)C
Method in brief: as §1

[3] = compound: CC1=C2C(=CC=C1)N=C(N(C2=O)C3=CC=CC=C3C)CN4C=NC5=C(N=CN=C54)N
Method in brief: as §1

[4] = compound: Cc1sc2c(c1C)C(c1ccc(Cl)cc1)=N[C@@H](CC(=O)OC(C)(C)C)c1nnc(C)n1-2
Method in brief: as §1

[5] = compound: c1ccc([C@@H]2C[C@H]2NC2CCNCC2)cc1
Method in brief: as §1

Measured: log2 fold change

CDK5 (UniProt Q00535)
inactive: [1] -0.01 | [2] -0.03 | [3] -0.021 | [4] 0.002 | [5] -0.02

CELF2 isoform 3 (UniProt O95319)
inactive: [1] -0.009 | [2] -0.012 | [3] 0.005 | [4] 0.012 | [5] 0.08

CFAP20 (UniProt Q9Y6A4)
inactive: [1] 0.006 | [2] 0.008 | [3] -0.024 | [4] 0.007 | [5] -0.082

CEP41 (UniProt Q9BYV8)
inactive: [1] -0.026 | [2] -0.06 | [3] -0.106 | [4] -0.068 | [5] -0.045

CDC45 isoform 3 (UniProt O75419)
inactive: [1] 0.076 | [2] -0.01 | [3] 0 | [4] -0.018 | [5] 0.026

CES2 isoform 4 (UniProt O00748)
inactive: [1] 0.129 | [2] 0.159 | [3] -0.089 | [4] 0.093 | [5] -0.07

CDKN1B (UniProt P46527)
inactive: [1] 0.059 | [2] -0.038 | [3] 0.146 | [4] 0.101 | [5] 0.02

Pulled one by one from above, 2 records:
CES2 isoform 4 (UniProt O00748)
inactive: [1] 0.129 | [2] 0.159 | [3] -0.089 | [4] 0.093 | [5] -0.07

CDC45 isoform 3 (UniProt O75419)
inactive: [1] 0.076 | [2] -0.01 | [3] 0 | [4] -0.018 | [5] 0.026

The listing continues.

CENPQ (UniProt Q7L2Z9)
inactive: [1] -0.02 | [2] -0.02 | [3] 0.038 | [4] 0.021 | [5] -0.013

CDC27 isoform 2 (UniProt P30260)
inactive: [1] -0.018 | [2] 0.025 | [3] 0.042 | [4] 0.019 | [5] 0.037
